This note sets out measurements from patent US7208157B2 (California Institute of Technology, priority 2000, dated 2007).

The data set is described as follows: peptide synthesis. Conditions: conjugation step.

IB peptide-suberate-Gly-DHT: the conjugation yield is 51%.
